PubChem BioAssay AID743458 – Peter MacCallum Cancer Centre – 2014
Purpose: 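Retest earlier hits with independent siRNAs per gene for restoring vorinostat sensitivity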 (follow-up of hits). Cell system: human HCT116-VR colon cancer cells made resistant to vorinostat. Reagents: single siRNA or pool against human genes, 25 nM per single siRNA. Duration: about 72 h after transfection, including 24 h of drug. Treatment: vorinostat, 2.5 µM final, for 24 h. Read-out: 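Live-cell fluorescent viability and luminescent caspase 3/7 activity after vorinostat treatment, background subtracted, mean of duplicate plates, as fold change over mock-transfected wells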. Scale: viability relative to mock: higher = more living cells than mock; caspase activity relative to mock: higher = more apoptosis than mock. Active means: 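Active means a reduced-viability or caspase-activation class, anything else inactive; classes could only be given to wells that looked healthy when left untreated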.
Here is a random part of about 1,800 deposited reagents. In the full data, 732 (41%) got an active call. 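Calls are per siRNA reagent; a gene was deemed confirmed only if most of its four siRNAs scored.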 Reagents against one gene are numbered here. No sequences are given here.

Gene	reagent	viability relative to mock	caspase activity relative to mock	viability hit class	caspase hit class	Outcome
KIR2DL1	1	0.62	6.96	no change	caspase activation	active
KIR2DL1	2	0.97	4	no change	caspase activation	active
KIR2DL1	3	0.12	2.72	reduced viability	caspase activation	active
KIR2DL1	4	0.8	1.79	no change	no change	inactive
LRRC14	1	0.92	3.48	no change	caspase activation	active
LRRC14	2	0.4	1.76	reduced viability	no change	active
LRRC14	3	0.84	2.84	no change	caspase activation	active
LRRC14	4	0.22	3.31	no change	no change	inactive
THSD7B	1	1.07	1.86	no change	no change	inactive
THSD7B	2	0.94	1.24	no change	no change	inactive
THSD7B	3	0.82	3.01	no change	caspase activation	active
THSD7B	4	0.76	3.34	no change	caspase activation	active
STS	1	0.92	0.86	no change	no change	inactive
STS	2	0.3	1.28	reduced viability	no change	active
STS	3	0.76	0.74	no change	no change	inactive
STS	4	1.02	0.9	no change	no change	inactive
MAK16	1	0.68	1.33	no change	no change	inactive
MAK16	2	0.68	2.67	no change	caspase activation	active
MAK16	3	0.55	1.27	reduced viability	no change	active
MAK16	4	0.46	2.58	reduced viability	caspase activation	active
SIN3A	1	0.88	2.41	no change	no change	inactive
SIN3A	2	1.08	1.77	no change	no change	inactive
SIN3A	3	0.49	5.6	reduced viability	caspase activation	active
SIN3A	4	0.74	4.88	no change	caspase activation	active
AKAP8	1	0.82	5.42	no change	caspase activation	active
AKAP8	2	1.07	1.36	no change	no change	inactive
AKAP8	3	0.67	4.36	no change	caspase activation	active
AKAP8	4	0.72	4.07	no change	caspase activation	active
NUP205	1	0.25	4.19	reduced viability	caspase activation	active
NUP205	2	0.33	3.06	reduced viability	caspase activation	active
NUP205	3	0.33	3.49	reduced viability	caspase activation	active
NUP205	4	0.44	3.29	reduced viability	caspase activation	active
CABP5	1	0.74	1.94	no change	no change	inactive
CABP5	2	0.78	1.66	no change	no change	inactive
CABP5	3	0.53	4.02	reduced viability	caspase activation	active
CABP5	4	0.53	3.68	reduced viability	caspase activation	active
TBC1D2B	1	0.94	0.98	no change	no change	inactive
TBC1D2B	2	1.12	2.65	no change	caspase activation	active
TBC1D2B	3	0.84	1	no change	no change	inactive
TBC1D2B	4	0.58	2.21	no change	no change	inactive
